Results taken from patent US20260027068A1, “METHODS OF ADM[…]-KETAMINE” (Perception Neuroscience, Inc., priority 2022, published 2026).
At least one structure is not confirmed: it was looked up by name or label, or the drawing left a doubt.

Key:
subjects with TRD [1] = assay: Clinician-Administered Dissociative States Scale (CADSS)
Protocol: (§1) The Investigational Medicinal Product (IMP) R(−)-ketamine hydrochloride in sterile water for intravenous injection was investigated as an […] treatment of TRD. The International Union of Pure and Applied Chemistry (IUPAC) name is of the IMP is (2R)-2-(2-chlorophenyl)-2-(methylamino)cyclohexan-1-one. Subjects received the solution at either 30 mg or 60 mg dose, or a placebo. The IMP or placebo was administered on Day 1 as a single IV infusion via an electronic infusion pump over 40 minutes. The duration of study participation for each subject was up to 29 days including a screening period, a 3-day in-clinic visit, and 2 follow-up visits. 101 subjects were enrolled in approximately 20 study centers in the EU and the US.
The CADSS was to assess the alertness or dissociative state of subjects administered R(−)-ketamine. The study staff evaluated the subject's degree of dissociation by administering the CADSS questionnaire pre-dose; at 40 minutes post-dose (at EoI); and at 2 and 4 hours post-dose.

subjects with TRD [2] = assay: Modified Observer's Assessment of Alertness/Sedation (MOAA/S)
Protocol: as §1
The MOAA/S will were to determine if R(−)-ketamine causes the side effect of sedation and to what degree. Sedation was evaluated by the study staff using the MOAA/S. The observer recorded the subject's alertness pre-dose, every 20 minutes for first 2 hours post-dose, and at 4 and 6 hours after the start of the infusion.

[3] = Phase 1 single ascending dose plasma pharmacokinetics of 40-minute IV infusion of R(−)-ketamine and its metabolites; conditions: after start of infusion

CN[C@@]1(c2ccccc2Cl)CCCCC1=O [PCN 101]
CADSS score, Min, Max (subjects with TRD [1]; 30 mg, 40 min post infusion start, n 33): 0, 27 | CADSS score, Min, Max (subjects with TRD [1]; 30 mg, 2 hours post infusion start, n 33): 0, 25 | CADSS score, Min, Max (subjects with TRD [1]; 30 mg, 4 hours post infusion start, n 33): 0, 11 | CADSS score, Min, Max (subjects with TRD [1]; 30 mg, 6 hours post infusion start, n 10): 0, 0 | CADSS change from baseline, Min, Max (subjects with TRD [1]; 30 mg, to 40 min post infusion start, n 33): 0, 27 | CADSS change from baseline, Min, Max (subjects with TRD [1]; 30 mg, to 2 hours post infusion start, n 33): −1, 25 | CADSS change from baseline, Min, Max (subjects with TRD [1]; 30 mg, to 4 hours post infusion start, n 33): −1, 11 | CADSS change from baseline, Min, Max (subjects with TRD [1]; 30 mg, to 6 hours, n 10): −1, 0 | CADSS score, Min, Max (subjects with TRD [1]; 60 mg, 40 min post infusion start, n 35): 0, 32 | CADSS score, Min, Max (subjects with TRD [1]; 60 mg, 2 hours post infusion start, n 35): 0, 8 | CADSS score, Min, Max (subjects with TRD [1]; 60 mg, 4 hours post infusion start, n 34): 0, 2 | CADSS score, Min, Max (subjects with TRD [1]; 60 mg, 6 hours post infusion start, n 11): 0, 0 | CADSS change from baseline, Min, Max (subjects with TRD [1]; 60 mg, to 40 min post infusion start, n 35): −2, 27 | CADSS change from baseline, Min, Max (subjects with TRD [1]; 60 mg, to 2 hours post infusion start, n 35): −2, 8 | CADSS change from baseline, Min, Max (subjects with TRD [1]; 60 mg, to 4 hours post infusion start, n 34): −5, 2 | CADSS change from baseline, Min, Max (subjects with TRD [1]; 60 mg, to 6 hours, n 11): 0, 0 | MOAA/S score, Min, Max (subjects with TRD [2]; 30 mg, 10 min post start of infusion, n 10): 5, 5 | MOAA/S score, Min, Max (subjects with TRD [2]; 30 mg, 20 min post start of infusion, n 33): 4, 5 | MOAA/S score, Min, Max (subjects with TRD [2]; 30 mg, 30 min post start of infusion, n 10): 4, 5 | MOAA/S score, Min, Max (subjects with TRD [2]; 30 mg, 40 min post start of infusion, n 33): 4, 5 | MOAA/S score, Min, Max (subjects with TRD [2]; 30 mg, 50 min post start of infusion, n 10): 4, 5 | MOAA/S score, Min, Max (subjects with TRD [2]; 30 mg, 1 hour 10 min post start of infusion, n 10): 5, 5 | MOAA/S score, Min, Max (subjects with TRD [2]; 30 mg, 1 hour 20 min post start of infusion, n 33): 4, 5 | MOAA/S score, Min, Max (subjects with TRD [2]; 30 mg, 1 hour 30 min post start of infusion, n 10): 5, 5 | MOAA/S score, Min, Max (subjects with TRD [2]; 30 mg, 1 hour 40 min post start of infusion, n 33): 4, 5 | MOAA/S score, Min, Max (subjects with TRD [2]; 30 mg, 1 hour 50 min post start of infusion, n 10): 5, 5 | MOAA/S score, Min, Max (subjects with TRD [2]; 30 mg, 1 hour post start of infusion, n 33): 4, 5 | MOAA/S score, Min, Max (subjects with TRD [2]; 30 mg, 2 hours, n 33): 4, 5 | MOAA/S score, Min, Max (subjects with TRD [2]; 30 mg, 4 hours, n 31): 5, 5 | MOAA/S score, Min, Max (subjects with TRD [2]; 30 mg, 6 hours, n 31): 5, 5 | MOAA/S change from baseline, Min, Max (subjects with TRD [2]; 30 mg, to 10 min post-start, n 10): 0, 0 | MOAA/S change from baseline, Min, Max (subjects with TRD [2]; 30 mg, to 20 min post-start, n 33): −1, 0 | MOAA/S change from baseline, Min, Max (subjects with TRD [2]; 30 mg, to 30 min post-start, n 10): −1, 0 | MOAA/S change from baseline, Min, Max (subjects with TRD [2]; 30 mg, to 40 min post-start, n 33): −1, 0 | MOAA/S change from baseline, Min, Max (subjects with TRD [2]; 30 mg, to 50 min post-start, n 10): −1, 0 | MOAA/S change from baseline, Min, Max (subjects with TRD [2]; 30 mg, to 1 hour 10 min post-start, n 10): 0, 0 | MOAA/S change from baseline, Min, Max (subjects with TRD [2]; 30 mg, to 1 hour 20 min post-start, n 33): −1, 0 | MOAA/S change from baseline, Min, Max (subjects with TRD [2]; 30 mg, to 1 hour 30 min post-start, n 10): 0, 0 | MOAA/S change from baseline, Min, Max (subjects with TRD [2]; 30 mg, to 1 hour 40 min post-start, n 33): −1, 0 | MOAA/S change from baseline, Min, Max (subjects with TRD [2]; 30 mg, to 1 hour 50 min post-start, n 10): 0, 0 | MOAA/S change from baseline, Min, Max (subjects with TRD [2]; 30 mg, to 1 hour post-start, n 33): −1, 0 | MOAA/S change from baseline, Min, Max (subjects with TRD [2]; 30 mg, to 2 hours, n 33): −1, 0 | MOAA/S change from baseline, Min, Max (subjects with TRD [2]; 30 mg, to 4 hours, n 31): 0, 0 | MOAA/S change from baseline, Min, Max (subjects with TRD [2]; 30 mg, to 6 hours, n 31): 0, 0 | MOAA/S score, Min, Max (subjects with TRD [2]; 60 mg, 10 min post start of infusion, n 11): 4, 5 | MOAA/S score, Min, Max (subjects with TRD [2]; 60 mg, 20 min post start of infusion, n 35): 4, 5 | MOAA/S score, Min, Max (subjects with TRD [2]; 60 mg, 30 min post start of infusion, n 11): 4, 5 | MOAA/S score, Min, Max (subjects with TRD [2]; 60 mg, 40 min post start of infusion, n 35): 4, 5 | MOAA/S score, Min, Max (subjects with TRD [2]; 60 mg, 50 min post start of infusion, n 11): 4, 5 | MOAA/S score, Min, Max (subjects with TRD [2]; 60 mg, 1 hour 10 min post start of infusion, n 11): 5, 5 | MOAA/S score, Min, Max (subjects with TRD [2]; 60 mg, 1 hour 20 min post start of infusion, n 34): 3, 5 | MOAA/S score, Min, Max (subjects with TRD [2]; 60 mg, 1 hour 30 min post start of infusion, n 11): 5, 5 | MOAA/S score, Min, Max (subjects with TRD [2]; 60 mg, 1 hour 40 min post start of infusion, n 35): 3, 5 | MOAA/S score, Min, Max (subjects with TRD [2]; 60 mg, 1 hour 50 min post start of infusion, n 11): 5, 5 | MOAA/S score, Min, Max (subjects with TRD [2]; 60 mg, 1 hour post start of infusion, n 35): 4, 5 | MOAA/S score, Min, Max (subjects with TRD [2]; 60 mg, 2 hours, n 35): 3, 5 | MOAA/S score, Min, Max (subjects with TRD [2]; 60 mg, 4 hours, n 32): 4, 5 | MOAA/S score, Min, Max (subjects with TRD [2]; 60 mg, 6 hours, n 32): 5, 5 | MOAA/S change from baseline, Min, Max (subjects with TRD [2]; 60 mg, to 10 min post-start, n 11): −1, 0 | MOAA/S change from baseline, Min, Max (subjects with TRD [2]; 60 mg, to 20 min post-start, n 35): −1, 0 | MOAA/S change from baseline, Min, Max (subjects with TRD [2]; 60 mg, to 30 min post-start, n 11): −1, 0 | MOAA/S change from baseline, Min, Max (subjects with TRD [2]; 60 mg, to 40 min post-start, n 35): −1, 0 | MOAA/S change from baseline, Min, Max (subjects with TRD [2]; 60 mg, to 50 min post-start, n 11): −1, 0 | MOAA/S change from baseline, Min, Max (subjects with TRD [2]; 60 mg, to 1 hour 10 min post-start, n 11): 0, 0 | MOAA/S change from baseline, Min, Max (subjects with TRD [2]; 60 mg, to 1 hour 20 min post-start, n 34): −2, 0 | MOAA/S change from baseline, Min, Max (subjects with TRD [2]; 60 mg, to 1 hour 30 min post-start, n 11): 0, 0 | MOAA/S change from baseline, Min, Max (subjects with TRD [2]; 60 mg, to 1 hour 40 min post-start, n 35): −2, 0 | MOAA/S change from baseline, Min, Max (subjects with TRD [2]; 60 mg, to 1 hour 50 min post-start, n 11): 0, 0 | MOAA/S change from baseline, Min, Max (subjects with TRD [2]; 60 mg, to 1 hour post-start, n 35): −1, 0 | MOAA/S change from baseline, Min, Max (subjects with TRD [2]; 60 mg, to 2 hours, n 35): −2, 0 | MOAA/S change from baseline, Min, Max (subjects with TRD [2]; 60 mg, to 4 hours, n 32): −1, 0 | MOAA/S change from baseline, Min, Max (subjects with TRD [2]; 60 mg, to 6 hours, n 32): 0, 0

NC1(c2ccccc2Cl)CCC=CC1=O (stereo not shown) [dehydronorketamine]
Earliest timepoints at which concentrations were quantifiable in all subjects (mixed units as printed) [3]: 15 to 90 min
